Read-outs that look alike come from different tables or passages of the source. Results are given in words; binding and its absence hold for the method and conditions named. In cells and extracts the contact can be indirect. Here binding means that the protein was enriched with, or labelled near, the bait; the list need not be complete.
Experiments:
[1] = molecular target: PIAS2 beta isoform (PIAS2b), endogenous (human (endogenous in 8305C)) (UniProt O75928); assay: affinity purification with mass spectrometry; Proteomic Assay 1: immunoprecipitation with mPIAS2 (clone D-12) against mouse IgG2a isotype from 8305C extracts synchronized at mitosis (DT/R-6 h), glycerol lysis buffer, protein G-Sepharose, overnight 4 °C, 5 washes with HNTG buffer, LC-MS/MS (SWATH and spectrum count)
[2] = molecular target: EGFP-hPIAS2b (human) (UniProt O75928); assay: affinity purification with mass spectrometry; Proteomic Assay 2: GFP-Trap of 8305C extracts (DT-6h) transfected with a non-toxic amount of EGFP-hPIAS2b against EGFP, SUMO-lysis buffer with N-ethylmaleimide, overnight 4 °C, LC-MS/MS (spectrum count)
[3] = molecular target: PIAS2 beta isoform (PIAS2b), endogenous (human (endogenous in 8305C)) (UniProt O75928); assay: affinity purification with mass spectrometry; Proteomic Assay 1: immunoprecipitation with mPIAS2 (clone D-12) against mouse IgG2a isotype from 8305C extracts synchronized at mitosis (DT/R-6 h), glycerol lysis buffer, protein G-Sepharose, overnight 4 °C, 5 washes with HNTG buffer, LC-MS/MS (SWATH and spectrum count); remark: listed apart in the source

By UniProt entry, the sequences of proteins in these tests, tags left out.
UniProt O75928: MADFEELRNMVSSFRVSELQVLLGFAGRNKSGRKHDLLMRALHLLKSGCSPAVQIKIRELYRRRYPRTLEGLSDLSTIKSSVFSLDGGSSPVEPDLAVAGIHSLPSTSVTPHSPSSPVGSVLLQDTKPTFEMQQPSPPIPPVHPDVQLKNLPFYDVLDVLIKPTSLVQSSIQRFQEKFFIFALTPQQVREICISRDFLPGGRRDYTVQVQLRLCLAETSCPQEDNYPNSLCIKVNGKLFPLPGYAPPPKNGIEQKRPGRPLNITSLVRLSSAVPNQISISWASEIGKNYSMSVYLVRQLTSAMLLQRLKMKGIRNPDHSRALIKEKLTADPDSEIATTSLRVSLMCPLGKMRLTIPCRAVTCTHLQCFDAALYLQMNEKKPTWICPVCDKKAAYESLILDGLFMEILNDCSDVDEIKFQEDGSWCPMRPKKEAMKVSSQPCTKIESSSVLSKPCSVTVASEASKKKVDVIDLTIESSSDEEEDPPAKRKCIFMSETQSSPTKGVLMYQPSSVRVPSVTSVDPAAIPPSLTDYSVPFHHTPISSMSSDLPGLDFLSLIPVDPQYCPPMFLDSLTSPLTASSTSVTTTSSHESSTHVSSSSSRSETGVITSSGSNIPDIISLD
UniProt O00232: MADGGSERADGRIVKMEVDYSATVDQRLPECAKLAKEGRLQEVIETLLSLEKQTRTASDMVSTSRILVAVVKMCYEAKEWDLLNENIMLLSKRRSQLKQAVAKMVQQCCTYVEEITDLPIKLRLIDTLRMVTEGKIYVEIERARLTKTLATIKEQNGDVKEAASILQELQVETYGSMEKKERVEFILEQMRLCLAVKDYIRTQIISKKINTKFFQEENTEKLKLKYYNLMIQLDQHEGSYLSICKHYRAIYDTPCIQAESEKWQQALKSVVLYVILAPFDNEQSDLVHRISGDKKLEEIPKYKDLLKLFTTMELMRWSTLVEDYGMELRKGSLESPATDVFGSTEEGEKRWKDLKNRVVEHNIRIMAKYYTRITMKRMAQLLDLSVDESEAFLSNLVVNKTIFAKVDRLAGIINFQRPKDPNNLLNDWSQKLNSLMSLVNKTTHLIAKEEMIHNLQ
UniProt Q14980: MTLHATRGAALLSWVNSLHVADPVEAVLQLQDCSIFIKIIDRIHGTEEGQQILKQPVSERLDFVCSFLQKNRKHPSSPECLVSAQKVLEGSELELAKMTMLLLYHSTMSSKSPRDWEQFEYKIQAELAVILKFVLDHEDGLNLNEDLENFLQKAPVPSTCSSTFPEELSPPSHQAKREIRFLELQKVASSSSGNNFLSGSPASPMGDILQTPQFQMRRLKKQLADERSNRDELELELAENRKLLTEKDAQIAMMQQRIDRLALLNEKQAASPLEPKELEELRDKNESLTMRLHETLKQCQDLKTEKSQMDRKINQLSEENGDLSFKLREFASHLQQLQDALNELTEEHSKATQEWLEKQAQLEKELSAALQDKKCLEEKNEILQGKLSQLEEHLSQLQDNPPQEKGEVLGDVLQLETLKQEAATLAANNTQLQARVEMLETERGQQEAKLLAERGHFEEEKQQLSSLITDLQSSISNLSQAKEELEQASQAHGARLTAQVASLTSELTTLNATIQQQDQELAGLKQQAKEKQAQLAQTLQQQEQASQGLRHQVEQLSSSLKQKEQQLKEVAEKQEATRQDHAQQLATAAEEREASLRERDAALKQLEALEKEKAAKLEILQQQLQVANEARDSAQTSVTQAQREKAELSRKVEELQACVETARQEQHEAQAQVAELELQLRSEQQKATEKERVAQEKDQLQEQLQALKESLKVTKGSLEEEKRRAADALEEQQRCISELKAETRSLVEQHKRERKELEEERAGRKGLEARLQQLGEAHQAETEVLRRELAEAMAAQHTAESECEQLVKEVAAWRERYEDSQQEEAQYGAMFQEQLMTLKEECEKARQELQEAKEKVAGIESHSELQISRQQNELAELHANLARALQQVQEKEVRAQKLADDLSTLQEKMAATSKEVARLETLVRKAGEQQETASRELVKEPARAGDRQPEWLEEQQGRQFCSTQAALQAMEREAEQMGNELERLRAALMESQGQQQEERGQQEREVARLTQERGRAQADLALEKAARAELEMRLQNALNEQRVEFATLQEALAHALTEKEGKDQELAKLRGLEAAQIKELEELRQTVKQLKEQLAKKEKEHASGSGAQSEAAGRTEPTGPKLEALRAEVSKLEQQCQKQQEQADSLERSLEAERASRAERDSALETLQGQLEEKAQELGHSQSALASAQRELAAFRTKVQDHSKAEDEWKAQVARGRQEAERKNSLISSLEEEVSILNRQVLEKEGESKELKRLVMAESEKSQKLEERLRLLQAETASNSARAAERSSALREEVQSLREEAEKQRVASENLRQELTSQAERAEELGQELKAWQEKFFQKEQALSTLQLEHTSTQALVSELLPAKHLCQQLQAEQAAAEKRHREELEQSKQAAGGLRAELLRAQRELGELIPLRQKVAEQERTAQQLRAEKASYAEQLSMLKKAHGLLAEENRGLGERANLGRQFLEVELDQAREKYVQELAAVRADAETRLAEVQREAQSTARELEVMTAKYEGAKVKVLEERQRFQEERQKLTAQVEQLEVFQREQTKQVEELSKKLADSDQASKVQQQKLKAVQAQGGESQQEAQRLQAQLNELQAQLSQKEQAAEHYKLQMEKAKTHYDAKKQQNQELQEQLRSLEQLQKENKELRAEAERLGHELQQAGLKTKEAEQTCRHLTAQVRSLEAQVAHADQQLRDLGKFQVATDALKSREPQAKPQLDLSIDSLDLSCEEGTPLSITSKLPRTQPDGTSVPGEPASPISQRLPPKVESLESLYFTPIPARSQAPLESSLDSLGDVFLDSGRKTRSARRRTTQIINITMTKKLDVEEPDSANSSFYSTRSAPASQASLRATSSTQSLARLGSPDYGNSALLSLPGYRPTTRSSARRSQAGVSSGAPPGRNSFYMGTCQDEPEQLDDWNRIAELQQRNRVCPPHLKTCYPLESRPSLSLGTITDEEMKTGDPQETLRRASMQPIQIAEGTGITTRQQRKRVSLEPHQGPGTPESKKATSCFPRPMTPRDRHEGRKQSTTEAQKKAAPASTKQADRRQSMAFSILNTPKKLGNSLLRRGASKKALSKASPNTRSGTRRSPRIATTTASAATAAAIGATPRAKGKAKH
UniProt P53350: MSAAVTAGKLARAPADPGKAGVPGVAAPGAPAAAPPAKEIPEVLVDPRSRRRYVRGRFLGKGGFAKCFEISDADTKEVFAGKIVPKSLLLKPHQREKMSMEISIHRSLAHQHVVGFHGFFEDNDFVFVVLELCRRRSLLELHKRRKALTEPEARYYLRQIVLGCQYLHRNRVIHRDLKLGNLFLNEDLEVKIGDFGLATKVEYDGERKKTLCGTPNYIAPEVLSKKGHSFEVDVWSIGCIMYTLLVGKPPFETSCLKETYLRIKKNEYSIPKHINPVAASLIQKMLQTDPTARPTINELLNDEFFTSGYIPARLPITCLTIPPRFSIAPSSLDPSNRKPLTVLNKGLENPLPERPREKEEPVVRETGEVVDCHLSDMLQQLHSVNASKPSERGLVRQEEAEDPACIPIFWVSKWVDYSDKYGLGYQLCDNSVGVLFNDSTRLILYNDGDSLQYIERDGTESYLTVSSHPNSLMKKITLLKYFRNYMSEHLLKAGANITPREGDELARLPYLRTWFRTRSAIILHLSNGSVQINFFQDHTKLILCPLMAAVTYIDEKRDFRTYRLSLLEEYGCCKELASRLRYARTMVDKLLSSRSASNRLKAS
UniProt Q13509: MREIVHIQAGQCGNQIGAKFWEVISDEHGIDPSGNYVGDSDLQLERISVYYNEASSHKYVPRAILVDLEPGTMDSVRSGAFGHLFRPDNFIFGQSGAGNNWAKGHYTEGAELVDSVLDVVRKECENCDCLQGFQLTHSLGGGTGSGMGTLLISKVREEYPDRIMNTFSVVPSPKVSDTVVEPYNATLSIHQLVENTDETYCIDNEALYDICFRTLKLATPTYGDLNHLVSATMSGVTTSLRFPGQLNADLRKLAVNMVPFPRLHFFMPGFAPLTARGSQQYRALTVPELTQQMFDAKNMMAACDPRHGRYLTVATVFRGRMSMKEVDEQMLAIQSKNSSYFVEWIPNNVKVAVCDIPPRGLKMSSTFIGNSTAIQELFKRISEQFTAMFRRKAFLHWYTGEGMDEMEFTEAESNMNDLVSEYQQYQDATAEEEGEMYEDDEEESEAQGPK
UniProt P67775: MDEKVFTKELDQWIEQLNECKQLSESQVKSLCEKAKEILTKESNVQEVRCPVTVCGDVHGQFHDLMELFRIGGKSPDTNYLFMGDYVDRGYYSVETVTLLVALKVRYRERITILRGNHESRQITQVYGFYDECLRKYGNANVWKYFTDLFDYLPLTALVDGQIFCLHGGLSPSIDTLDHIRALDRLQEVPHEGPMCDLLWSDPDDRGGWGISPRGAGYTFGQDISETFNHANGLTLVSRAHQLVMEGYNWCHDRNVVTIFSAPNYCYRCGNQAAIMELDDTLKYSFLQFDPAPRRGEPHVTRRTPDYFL
UniProt Q92973: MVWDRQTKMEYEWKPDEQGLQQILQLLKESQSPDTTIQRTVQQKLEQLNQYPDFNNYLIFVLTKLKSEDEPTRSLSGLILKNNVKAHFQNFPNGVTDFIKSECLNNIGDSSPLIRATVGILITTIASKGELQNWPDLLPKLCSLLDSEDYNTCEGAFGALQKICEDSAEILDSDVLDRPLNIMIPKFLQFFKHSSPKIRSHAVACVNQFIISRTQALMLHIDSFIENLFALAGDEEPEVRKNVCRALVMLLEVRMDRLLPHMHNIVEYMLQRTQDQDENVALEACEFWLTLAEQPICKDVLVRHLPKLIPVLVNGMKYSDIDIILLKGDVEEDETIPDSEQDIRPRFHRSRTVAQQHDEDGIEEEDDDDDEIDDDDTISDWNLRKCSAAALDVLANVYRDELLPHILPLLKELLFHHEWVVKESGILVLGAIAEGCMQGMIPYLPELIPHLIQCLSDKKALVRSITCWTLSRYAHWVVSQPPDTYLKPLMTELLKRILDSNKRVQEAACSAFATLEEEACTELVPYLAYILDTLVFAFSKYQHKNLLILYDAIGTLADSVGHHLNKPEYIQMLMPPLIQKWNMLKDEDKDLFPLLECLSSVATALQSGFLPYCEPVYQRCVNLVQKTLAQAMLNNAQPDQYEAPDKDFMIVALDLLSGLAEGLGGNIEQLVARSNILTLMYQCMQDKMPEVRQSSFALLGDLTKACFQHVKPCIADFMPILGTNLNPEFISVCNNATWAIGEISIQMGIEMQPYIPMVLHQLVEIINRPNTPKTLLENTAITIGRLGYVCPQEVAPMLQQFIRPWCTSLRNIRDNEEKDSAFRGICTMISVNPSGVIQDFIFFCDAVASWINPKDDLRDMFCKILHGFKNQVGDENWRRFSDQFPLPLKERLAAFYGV
UniProt Q9BSJ2: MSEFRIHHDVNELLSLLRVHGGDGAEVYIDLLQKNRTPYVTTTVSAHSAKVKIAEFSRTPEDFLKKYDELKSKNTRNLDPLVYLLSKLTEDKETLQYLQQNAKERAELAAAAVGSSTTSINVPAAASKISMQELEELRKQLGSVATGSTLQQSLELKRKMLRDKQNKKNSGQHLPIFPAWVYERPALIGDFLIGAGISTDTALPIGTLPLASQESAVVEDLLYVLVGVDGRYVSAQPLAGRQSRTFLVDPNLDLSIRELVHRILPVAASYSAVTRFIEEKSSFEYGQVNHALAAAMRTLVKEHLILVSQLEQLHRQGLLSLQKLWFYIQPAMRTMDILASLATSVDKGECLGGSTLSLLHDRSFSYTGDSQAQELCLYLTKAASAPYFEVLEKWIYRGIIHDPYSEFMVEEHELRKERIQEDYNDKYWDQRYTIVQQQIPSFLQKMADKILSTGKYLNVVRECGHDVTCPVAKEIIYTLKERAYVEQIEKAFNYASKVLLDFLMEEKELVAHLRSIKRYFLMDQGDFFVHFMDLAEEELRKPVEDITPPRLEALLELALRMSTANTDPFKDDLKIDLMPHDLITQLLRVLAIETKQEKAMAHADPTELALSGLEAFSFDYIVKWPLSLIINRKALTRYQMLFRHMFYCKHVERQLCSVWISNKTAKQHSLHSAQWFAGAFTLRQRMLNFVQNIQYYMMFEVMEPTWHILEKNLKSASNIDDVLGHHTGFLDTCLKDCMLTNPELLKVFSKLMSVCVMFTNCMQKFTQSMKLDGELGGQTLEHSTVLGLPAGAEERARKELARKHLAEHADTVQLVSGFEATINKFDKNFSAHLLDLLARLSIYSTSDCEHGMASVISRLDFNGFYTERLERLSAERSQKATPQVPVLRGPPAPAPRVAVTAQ
UniProt P49721: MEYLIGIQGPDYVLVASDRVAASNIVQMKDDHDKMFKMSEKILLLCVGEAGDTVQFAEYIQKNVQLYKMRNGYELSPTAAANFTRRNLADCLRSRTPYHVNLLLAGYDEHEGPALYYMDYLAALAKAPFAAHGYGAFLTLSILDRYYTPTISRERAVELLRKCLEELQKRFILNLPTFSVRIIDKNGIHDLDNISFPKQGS

binding [1] | binding [3] | Molecule | binding [2]
binds |  | PSMD12, endogenous (from UniProt O00232 1-456) | binds
binds |  | NUMA1, endogenous (from UniProt Q14980 1-2115) | 
binds |  | PLK1, endogenous (from UniProt P53350 1-603) | 
binds |  | TUBB3, endogenous (from UniProt Q13509 1-450) | binds
binds |  | DYNC1H1, endogenous (from UniProt Q14204 1-4646) | binds
binds |  | aurora kinase A (AURKA), endogenous (from UniProt O14965 1-403) | 
binds |  | PSMC6, endogenous (from UniProt P62333 1-389) | binds

Second part, the molecule before the results:

Molecule | binding [1] | binding [3] | binding [2]
catalytic subunit of the serine/threonine-protein phosphatase 2A alpha isoform (PPP2CA), endogenous (from UniProt P67775 1-309) | binds |  | 
gamma tubulin, endogenous (from UniProt P23258) | binds |  | 
MACF1, endogenous (from UniProt Q9UPN3 1-7388) | binds |  | binds
TNPO1, endogenous (from UniProt Q92973 1-898) | binds |  | binds
SPTAN1, endogenous (from UniProt Q13813 1-2472) | binds |  | binds
RANBP2, endogenous (from UniProt P49792 1-3224) | binds |  | 
TUBGPC2 (as printed), endogenous (from UniProt Q9BSJ2 1-902) | binds |  | 
CCNB1, endogenous (from UniProt P14635 1-433) | binds |  | 
PSMB2, endogenous (from UniProt P49721 1-201) | binds |  | binds
NEK7, endogenous (from UniProt Q8TDX7 1-302) | binds |  | 
PSMC5, endogenous (from UniProt P62195 1-406) | binds |  | binds
PLEC, endogenous (from UniProt Q15149 1-4684) | binds |  | binds
AAAS, endogenous (protein, UniProt Q9NRG9 1-546) MCSLGLFPPPPPRGQVTLYEHNNELVTGSSYESPPPDFRGQWINLPVLQLTKDPLKTPGRLDHGTRTAFIHHREQVWKRCINIWRDVGLFGVLNEIANSEEEVFEWVKTASGWALALCRWASSLHGSLFPHLSLRSEDLIAEFAQVTNWSSCCLRVFAWHPHTNKFAVALLDDSVRVYNASSTIVPSLKHRLQRNVASLAWKPLSASVLAVACQSCILIWTLDPTSLSTRPSSGCAQVLSHPGHTPVTSLAWAPSGGRLLSASPVDAAIRVWDVSTETCVPLPWFRGGGVTNLLWSPDGSKILATTPSAVFRVWEAQMWTCERWPTLSGRCQTGCWSPDGSRLLFTVLGEPLIYSLSFPERCGEGKGCVGGAKSATIVADLSETTIQTPDGEERLGGEAHSMVWDPSGERLAVLMKGKPRVQDGKPVILLFRTRNSPVFELLPCGIIQGEPGAQPQLITFHPSFNKGALLSVGWSTGRIAHIPLYFVNAQFPRFSPVLGRAQEPPAGGGGSIHDLPLFTETSPTSAPWDPLPGPPPVLPHSPHSHL |  | binds | 
PLS3, endogenous (protein, UniProt P13797 1-630) MDEMATTQISKDELDELKEAFAKVDLNSNGFICDYELHELFKEANMPLPGYKVREIIQKLMLDGDRNKDGKISFDEFVYIFQEVKSSDIAKTFRKAINRKEGICALGGTSELSSEGTQHSYSEEEKYAFVNWINKALENDPDCRHVIPMNPNTDDLFKAVGDGIVLCKMINLSVPDTIDERAINKKKLTPFIIQENLNLALNSASAIGCHVVNIGAEDLRAGKPHLVLGLLWQIIKIGLFADIELSRNEALAALLRDGETLEELMKLSPEELLLRWANFHLENSGWQKINNFSADIKDSKAYFHLLNQIAPKGQKEGEPRIDINMSGFNETDDLKRAESMLQQADKLGCRQFVTPADVVSGNPKLNLAFVANLFNKYPALTKPENQDIDWTLLEGETREERTFRNWMNSLGVNPHVNHLYADLQDALVILQLYERIKVPVDWSKVNKPPYPKLGANMKKLENCNYAVELGKHPAKFSLVGIGGQDLNDGNQTLTLALVWQLMRRYTLNVLEDLGDGQKANDDIIVNWVNRTLSEAGKSTSIQSFKDKTISSSLAVVDLIDAIQPGCINYDLVKSGNLTEDDKHNNAKYAVSMARRIGARVYALPEDLVEVKPKMVMTVFACLMGRGMKRV |  | binds | binds

Reference: PMC11094195
